Measurements from the supplement of paper PMC11006884.
This is a selection; strong and weak results do not stand in their true shares. The data scatter; read single values as rough.

By UniProt entry, the sequences of proteins in these tests, tags left out. Where a name states a change or a piece, a line headed by the entry shows the natural chain unless it says otherwise.
UniProt Q7L2J0: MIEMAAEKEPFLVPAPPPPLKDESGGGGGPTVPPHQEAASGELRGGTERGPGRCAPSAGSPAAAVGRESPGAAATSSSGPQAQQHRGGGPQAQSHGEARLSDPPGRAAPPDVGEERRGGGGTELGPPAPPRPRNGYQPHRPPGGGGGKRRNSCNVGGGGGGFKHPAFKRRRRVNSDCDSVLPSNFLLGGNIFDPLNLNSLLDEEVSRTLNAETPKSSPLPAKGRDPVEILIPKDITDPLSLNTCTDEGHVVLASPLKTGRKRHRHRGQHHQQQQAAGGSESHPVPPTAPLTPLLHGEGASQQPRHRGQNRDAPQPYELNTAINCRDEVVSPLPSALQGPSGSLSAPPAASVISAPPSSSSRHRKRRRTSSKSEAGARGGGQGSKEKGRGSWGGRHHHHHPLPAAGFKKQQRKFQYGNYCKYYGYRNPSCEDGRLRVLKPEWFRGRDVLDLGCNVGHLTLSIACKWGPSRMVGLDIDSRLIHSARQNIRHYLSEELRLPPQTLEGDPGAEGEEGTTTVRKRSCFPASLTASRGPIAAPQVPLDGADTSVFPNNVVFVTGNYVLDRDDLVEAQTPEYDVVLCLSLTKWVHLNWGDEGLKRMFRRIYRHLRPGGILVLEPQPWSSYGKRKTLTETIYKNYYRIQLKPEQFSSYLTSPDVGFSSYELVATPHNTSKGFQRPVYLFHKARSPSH
UniProt Q7Z6E9: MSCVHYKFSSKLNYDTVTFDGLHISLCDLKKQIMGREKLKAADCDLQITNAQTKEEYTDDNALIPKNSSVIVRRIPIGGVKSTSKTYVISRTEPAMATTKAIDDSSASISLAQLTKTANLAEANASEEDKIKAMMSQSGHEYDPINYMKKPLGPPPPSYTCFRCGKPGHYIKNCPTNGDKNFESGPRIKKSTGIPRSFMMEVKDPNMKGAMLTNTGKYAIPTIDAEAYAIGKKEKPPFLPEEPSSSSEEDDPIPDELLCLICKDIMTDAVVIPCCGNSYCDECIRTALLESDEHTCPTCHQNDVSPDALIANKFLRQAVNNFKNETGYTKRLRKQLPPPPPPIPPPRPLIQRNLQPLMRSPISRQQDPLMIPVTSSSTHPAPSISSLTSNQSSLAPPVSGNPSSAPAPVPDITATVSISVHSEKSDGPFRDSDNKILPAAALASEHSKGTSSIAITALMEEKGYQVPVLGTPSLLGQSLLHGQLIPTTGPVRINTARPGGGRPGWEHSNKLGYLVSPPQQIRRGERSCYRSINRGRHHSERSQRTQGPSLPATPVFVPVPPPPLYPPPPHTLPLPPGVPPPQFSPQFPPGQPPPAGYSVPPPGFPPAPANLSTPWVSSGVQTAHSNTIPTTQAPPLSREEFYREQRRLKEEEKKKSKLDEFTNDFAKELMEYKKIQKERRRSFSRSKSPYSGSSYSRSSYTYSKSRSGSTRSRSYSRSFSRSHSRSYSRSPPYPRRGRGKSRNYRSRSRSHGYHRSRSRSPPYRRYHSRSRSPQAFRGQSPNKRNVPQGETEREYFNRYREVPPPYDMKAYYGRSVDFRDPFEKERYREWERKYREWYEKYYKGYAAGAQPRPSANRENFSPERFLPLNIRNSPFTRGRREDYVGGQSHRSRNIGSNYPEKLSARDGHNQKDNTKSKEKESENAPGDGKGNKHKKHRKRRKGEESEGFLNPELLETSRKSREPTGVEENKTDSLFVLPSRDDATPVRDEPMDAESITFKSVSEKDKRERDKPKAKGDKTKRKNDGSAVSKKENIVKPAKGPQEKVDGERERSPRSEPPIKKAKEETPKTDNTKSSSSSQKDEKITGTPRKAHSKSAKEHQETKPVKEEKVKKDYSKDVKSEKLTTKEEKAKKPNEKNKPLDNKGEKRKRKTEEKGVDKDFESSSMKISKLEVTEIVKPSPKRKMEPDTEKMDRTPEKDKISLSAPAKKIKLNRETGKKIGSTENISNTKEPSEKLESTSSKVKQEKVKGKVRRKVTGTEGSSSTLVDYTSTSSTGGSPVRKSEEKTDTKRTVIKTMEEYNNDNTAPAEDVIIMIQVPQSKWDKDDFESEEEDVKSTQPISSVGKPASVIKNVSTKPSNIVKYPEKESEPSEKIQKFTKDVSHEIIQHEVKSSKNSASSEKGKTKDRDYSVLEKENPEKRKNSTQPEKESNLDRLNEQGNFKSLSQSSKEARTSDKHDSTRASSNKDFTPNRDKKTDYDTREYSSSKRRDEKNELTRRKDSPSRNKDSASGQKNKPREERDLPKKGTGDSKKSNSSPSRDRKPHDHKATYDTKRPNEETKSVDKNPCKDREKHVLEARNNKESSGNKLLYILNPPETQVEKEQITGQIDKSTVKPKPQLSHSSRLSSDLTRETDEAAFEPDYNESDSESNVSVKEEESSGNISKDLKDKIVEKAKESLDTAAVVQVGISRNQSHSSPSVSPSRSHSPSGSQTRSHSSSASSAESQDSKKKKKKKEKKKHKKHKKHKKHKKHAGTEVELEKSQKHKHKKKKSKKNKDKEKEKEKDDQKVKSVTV
UniProt Q86Y56: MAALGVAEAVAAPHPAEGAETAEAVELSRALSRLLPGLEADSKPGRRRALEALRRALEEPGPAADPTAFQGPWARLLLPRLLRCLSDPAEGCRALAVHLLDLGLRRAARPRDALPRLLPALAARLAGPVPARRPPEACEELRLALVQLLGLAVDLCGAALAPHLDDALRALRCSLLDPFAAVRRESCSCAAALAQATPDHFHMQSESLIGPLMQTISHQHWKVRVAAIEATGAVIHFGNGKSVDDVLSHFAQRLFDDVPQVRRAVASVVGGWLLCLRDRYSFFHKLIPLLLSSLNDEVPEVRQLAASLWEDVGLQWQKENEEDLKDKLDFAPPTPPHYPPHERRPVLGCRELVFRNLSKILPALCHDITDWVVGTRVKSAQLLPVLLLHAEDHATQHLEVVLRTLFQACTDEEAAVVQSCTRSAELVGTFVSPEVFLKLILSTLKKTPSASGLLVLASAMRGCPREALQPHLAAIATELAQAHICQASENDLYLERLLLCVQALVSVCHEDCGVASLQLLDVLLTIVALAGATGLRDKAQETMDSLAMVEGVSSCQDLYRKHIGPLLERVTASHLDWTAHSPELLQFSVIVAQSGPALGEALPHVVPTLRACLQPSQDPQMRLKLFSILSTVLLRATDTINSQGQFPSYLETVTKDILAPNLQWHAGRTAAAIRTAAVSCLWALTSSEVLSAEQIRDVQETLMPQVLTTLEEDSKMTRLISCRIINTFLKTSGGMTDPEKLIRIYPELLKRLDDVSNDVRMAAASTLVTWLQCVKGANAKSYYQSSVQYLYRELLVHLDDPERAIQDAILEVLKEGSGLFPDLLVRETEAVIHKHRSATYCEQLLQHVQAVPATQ
UniProt Q8IWX8: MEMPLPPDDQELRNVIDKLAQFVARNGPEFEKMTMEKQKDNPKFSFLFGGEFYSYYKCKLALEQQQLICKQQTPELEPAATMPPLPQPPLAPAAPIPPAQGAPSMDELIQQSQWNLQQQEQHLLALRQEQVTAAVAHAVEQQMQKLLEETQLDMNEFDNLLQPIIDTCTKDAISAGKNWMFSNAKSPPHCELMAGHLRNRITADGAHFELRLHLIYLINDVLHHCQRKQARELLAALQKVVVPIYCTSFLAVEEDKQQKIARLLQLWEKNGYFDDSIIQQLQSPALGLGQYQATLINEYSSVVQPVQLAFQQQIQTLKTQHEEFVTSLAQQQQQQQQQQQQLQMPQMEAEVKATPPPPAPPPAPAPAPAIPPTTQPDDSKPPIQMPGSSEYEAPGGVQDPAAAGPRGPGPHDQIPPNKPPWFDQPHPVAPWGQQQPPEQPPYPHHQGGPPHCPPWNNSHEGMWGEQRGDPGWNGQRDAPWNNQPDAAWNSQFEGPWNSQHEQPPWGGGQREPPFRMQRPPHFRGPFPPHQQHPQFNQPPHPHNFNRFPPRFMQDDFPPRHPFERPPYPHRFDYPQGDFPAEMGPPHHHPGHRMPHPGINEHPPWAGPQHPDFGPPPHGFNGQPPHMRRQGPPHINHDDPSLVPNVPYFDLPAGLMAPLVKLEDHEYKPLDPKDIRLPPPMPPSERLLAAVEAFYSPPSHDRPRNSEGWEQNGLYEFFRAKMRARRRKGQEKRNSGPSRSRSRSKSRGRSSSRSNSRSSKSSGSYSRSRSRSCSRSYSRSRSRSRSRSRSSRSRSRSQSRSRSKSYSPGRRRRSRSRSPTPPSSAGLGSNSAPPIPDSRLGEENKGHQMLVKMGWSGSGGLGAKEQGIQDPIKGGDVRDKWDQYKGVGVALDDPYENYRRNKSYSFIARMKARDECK
UniProt Q7L266: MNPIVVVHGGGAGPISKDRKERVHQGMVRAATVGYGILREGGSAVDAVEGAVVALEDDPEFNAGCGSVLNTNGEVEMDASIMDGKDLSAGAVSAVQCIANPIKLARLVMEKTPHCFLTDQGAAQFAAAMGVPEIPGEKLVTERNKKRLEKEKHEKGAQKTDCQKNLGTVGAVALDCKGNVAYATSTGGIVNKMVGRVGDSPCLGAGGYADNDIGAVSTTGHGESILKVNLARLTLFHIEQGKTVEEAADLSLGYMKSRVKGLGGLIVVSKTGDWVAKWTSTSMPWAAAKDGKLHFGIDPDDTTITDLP
UniProt Q8IWS0: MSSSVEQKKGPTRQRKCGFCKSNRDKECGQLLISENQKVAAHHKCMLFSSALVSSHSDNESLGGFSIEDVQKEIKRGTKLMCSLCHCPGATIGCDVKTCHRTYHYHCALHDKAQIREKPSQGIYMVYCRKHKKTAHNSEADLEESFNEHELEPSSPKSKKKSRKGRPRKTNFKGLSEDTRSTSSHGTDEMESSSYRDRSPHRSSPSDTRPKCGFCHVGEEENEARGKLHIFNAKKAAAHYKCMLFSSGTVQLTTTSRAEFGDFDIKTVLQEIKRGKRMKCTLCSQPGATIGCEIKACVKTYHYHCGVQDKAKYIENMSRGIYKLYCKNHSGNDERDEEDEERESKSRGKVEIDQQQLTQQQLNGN
UniProt Q86W56: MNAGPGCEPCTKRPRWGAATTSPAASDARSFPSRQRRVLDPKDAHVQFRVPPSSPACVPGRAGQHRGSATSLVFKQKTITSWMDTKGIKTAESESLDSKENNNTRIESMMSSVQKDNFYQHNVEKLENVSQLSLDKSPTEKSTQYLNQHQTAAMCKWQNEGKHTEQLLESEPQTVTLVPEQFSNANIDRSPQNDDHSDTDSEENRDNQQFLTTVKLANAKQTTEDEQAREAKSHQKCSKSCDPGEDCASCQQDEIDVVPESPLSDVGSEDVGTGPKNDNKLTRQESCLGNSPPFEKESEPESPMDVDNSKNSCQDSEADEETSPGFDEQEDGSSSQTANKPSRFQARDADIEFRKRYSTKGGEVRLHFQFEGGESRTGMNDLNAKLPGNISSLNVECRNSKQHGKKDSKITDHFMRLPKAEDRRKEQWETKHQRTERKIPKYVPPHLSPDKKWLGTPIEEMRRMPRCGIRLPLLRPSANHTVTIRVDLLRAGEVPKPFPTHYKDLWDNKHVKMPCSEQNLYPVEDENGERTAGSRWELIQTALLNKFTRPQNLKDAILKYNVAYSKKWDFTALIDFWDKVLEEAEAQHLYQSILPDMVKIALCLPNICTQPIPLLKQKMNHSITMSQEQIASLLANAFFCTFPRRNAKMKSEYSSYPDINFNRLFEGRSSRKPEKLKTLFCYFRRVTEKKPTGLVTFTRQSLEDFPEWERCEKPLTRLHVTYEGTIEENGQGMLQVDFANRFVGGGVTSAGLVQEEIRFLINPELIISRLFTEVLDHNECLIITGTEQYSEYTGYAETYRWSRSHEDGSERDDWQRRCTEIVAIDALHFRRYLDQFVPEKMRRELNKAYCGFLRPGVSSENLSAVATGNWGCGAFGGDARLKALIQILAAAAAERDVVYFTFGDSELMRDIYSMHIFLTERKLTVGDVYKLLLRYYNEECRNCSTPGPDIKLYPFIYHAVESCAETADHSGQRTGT
UniProt Q8IZ69: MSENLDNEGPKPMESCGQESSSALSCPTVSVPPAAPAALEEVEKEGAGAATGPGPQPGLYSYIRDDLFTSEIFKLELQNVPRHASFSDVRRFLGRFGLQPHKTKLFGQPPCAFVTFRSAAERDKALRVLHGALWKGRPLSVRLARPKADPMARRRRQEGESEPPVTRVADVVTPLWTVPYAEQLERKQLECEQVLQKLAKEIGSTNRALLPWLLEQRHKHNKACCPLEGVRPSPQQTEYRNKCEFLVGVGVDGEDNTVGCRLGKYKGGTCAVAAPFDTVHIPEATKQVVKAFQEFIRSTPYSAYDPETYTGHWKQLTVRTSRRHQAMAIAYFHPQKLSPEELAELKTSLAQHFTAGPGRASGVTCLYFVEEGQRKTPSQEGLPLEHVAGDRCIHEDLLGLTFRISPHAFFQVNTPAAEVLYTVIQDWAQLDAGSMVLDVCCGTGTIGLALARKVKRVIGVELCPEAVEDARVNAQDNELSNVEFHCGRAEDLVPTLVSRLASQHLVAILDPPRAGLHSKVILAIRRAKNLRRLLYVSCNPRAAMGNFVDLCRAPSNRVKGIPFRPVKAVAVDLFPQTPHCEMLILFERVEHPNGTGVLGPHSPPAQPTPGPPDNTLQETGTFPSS

compound: COC(=O)/C=C/c1ccccc1 [methyl cinnamate]; experiment: log2 ratio of iodoacetamide-alkyne labeling of the cysteine site, DMSO over compound (competition); higher = stronger covalent engagement of the cysteine by the compound, active = 1 or more; settings: 500 µM; treatment time 1 h; system: HEK293T cell lysate
Procedure, shortened: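 HEK293T lysate (2 mg/mL) was treated with DMSO or electrophile (500 µM, 1 h, ambient temperature), then iodoacetamide alkyne (1 h), clicked to sCIP-TMT reagents, pooled, trypsin-digested overnight at 37 °C, streptavidin-enriched and acid-eluted. Peptides were run on Orbitrap Eclipse LC-MS/MS with FAIMS and quantified in FragPipe. The log2 competition ratio per cysteine is mean control-channel over mean compound-channel reporter intensity. Duplicate channels and three replicates were used, and cysteines quantified in only one replicate were excluded.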

log2 ratio of iodoacetamide-alkyne labeling, inactive:
SLFN11 C6 (UniProt Q7Z7L1) 0.133, SETX C997 (UniProt Q7Z333) 0.115, UniProt Q7Z695_C624 -0.0902, NCAPG2 C537 (UniProt Q86XI2) 0.11, MEPCE C177 (UniProt Q7L2J0) 0.0226, RBBP6 C27 (UniProt Q7Z6E9) 0.284, UniProt Q7Z2T5_C320 0.31, UniProt Q7Z2Z2_C646 -0.0778, HUWE1 C1278 (UniProt Q7Z6Z7) -0.0378, UniProt Q86Y56_C84 0.144, CAND1 C131 (UniProt Q86VP6) 0.0918, IRF2BP1 C207 (UniProt Q8IU81) 0.0933, UniProt Q8IX90_C290 -0.541, CHERP C246 (UniProt Q8IWX8) -0.0552, SND1 C31 (UniProt Q7KZF4) 0.0503, UniProt Q86YR5_C497 0.294, UniProt Q7Z4V5_C631 0.0624, ASRGL1 C115 (UniProt Q7L266) -0.322, SUPV3L1 C175 (UniProt Q8IYB8) 0.305, GPRIN1 C221 (UniProt Q7Z2K8) 0.0979, GATAD2A C420 (UniProt Q86YP4) 0.0595, UniProt Q8IYL2_C666 0.201, PHF6 C242 (UniProt Q8IWS0) -0.202, DCP2 C391 (UniProt Q8IU60) 0.507, MGA C2202 (UniProt Q8IWI9) 0.284, UniProt Q86UD0_C195 0.264, IRF2BP2 C65 (UniProt Q7Z5L9) 0.127, POGZ C547 (UniProt Q7Z3K3) -0.1, UniProt Q86Y56_C409 0.0712, ALDH16A1 C350 (UniProt Q8IZ83) 0.0866, PARG C603 (UniProt Q86W56) -0.0134, TRMT2A C191 (UniProt Q8IZ69) 0.0973, CYFIP1 C179 (UniProt Q7L576) 0.427, ZFYVE16 C174 (UniProt Q7Z3T8) 0.114, USP48 C986 (UniProt Q86UV5) -0.103, UniProt Q86Y56_C420 0.0712, DHX30 C484 (UniProt Q7L2E3) 0.221
